Test results published in PubChem BioAssay AID720504 (National Center for Advancing Translational Sciences (NCATS), 2013).
Screen size: about 360,000 compounds; about 10,000 (2.8%) were called active. This list was built around the results that the source calls inconclusive (neither active nor inactive); the mix of calls is not that of the screen. Calls come from the whole dose curve; as a rule, active = well fitted inhibition curve with a large enough effect; inconclusive = small, poorly fitted or top-dose-only effect; inactive = flat fitted curve, though single readings scatter. Where the call is inconclusive, the potency comes from a doubtful curve fit.

Amino acid sequences for entries named in this document (tags omitted).
UniProt P53350, whole entry, looked up: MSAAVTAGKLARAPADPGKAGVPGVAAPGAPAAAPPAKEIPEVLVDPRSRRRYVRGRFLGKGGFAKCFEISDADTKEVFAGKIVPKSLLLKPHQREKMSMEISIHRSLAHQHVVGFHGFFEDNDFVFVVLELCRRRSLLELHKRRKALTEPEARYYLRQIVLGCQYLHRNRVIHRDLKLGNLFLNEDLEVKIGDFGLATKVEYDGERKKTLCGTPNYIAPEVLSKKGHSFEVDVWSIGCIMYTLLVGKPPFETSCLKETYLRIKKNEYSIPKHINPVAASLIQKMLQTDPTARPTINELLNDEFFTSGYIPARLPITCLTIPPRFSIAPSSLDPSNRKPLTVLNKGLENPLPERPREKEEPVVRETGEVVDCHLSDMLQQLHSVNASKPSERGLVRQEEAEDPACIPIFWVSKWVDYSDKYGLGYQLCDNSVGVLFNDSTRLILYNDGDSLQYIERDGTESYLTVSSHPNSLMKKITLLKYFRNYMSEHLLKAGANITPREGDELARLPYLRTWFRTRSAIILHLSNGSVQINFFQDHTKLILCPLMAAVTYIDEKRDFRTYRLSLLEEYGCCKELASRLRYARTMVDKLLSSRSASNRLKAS

What follows are compounds tested against Serine/threonine-protein kinase PLK1 (Homo sapiens) (UniProt P53350) (assay: qHTS for Inhibitors of PLK1-PDB (polo-like kinase 1 - polo-box domain): Primary Screen). Conditions: Plk1 PBD binding of FITC phosphopeptide, fluorescence polarization.
% is set by controls: 0 for no effect and ±100 for the full control effect; potency is the fitted concentration of half-maximal effect.
Note: nearly all actives have a fitted effect of over 65% in size.
Throughout, for max response, negative = inhibition: series mostly up to about 57 µM.

Question: CCOc1cc(C2C(C#N)=C(N)Oc3n[nH]c(-c4ccncc4)c32)cc([N+](=O)[O-])c1O (stereo unspecified) was tested. Which Potency did it give?
Answer: Its Potency is inconclusive: 21.2 µM [inhibitor, partial curve].

Question: With Clc1ccccc1OCc1nn2c(-c3ccncc3)nnc2s1 as the compound, how does the Potency read?
Answer: The Potency was inconclusive: 37.7 µM [inhibitor, single point].

Question: How did the max response, negative = inhibition turn out when CCc1nc2ccc(C(=O)NCCCn3ccnc3)cn2c1N(C)CCC(C)C was run?
Answer: Its max response, negative = inhibition is inactive: -9.49%.

Question: For O=C(/C=C/c1ccc([N+](=O)[O-])cc1)c1cccs1, which Potency is on record?
Answer: The Potency was inconclusive: 29.9 µM [inhibitor, partial curve].

Question: Which Potency does the source give for CC/C(=N\NC(=S)NC(C)C)c1ccc(OC)c(OC)c1 here?
Answer: The Potency was inconclusive: 18.9 µM [inhibitor, partial curve].

Question: How did the Potency turn out when CCNC(=S)Nc1ccc(N2CCCCC2)cc1 was run?
Answer: The Potency was inconclusive: 21.2 µM [inhibitor, partial curve].

Question: How did the Potency turn out when O=C(CCC(=O)Nc1nnc(C2CCCCC2)s1)Nc1ccc(F)cc1 was run?
Answer: Its Potency is inconclusive: 29.9 µM [inhibitor, partial curve].

Question: O=C(NCCCNC(=O)c1cccs1)c1cccs1 was tested. Which Potency did it give?
Answer: Its Potency is active: 2.67 µM.

Question: With c1ccc(-c2ccc(OCCCNC3CCCC3)cc2)cc1 as the compound, how does the Potency read?
Answer: The Potency was inconclusive: 23.8 µM [inhibitor, single point].

Question: For COc1cccc(C(=O)Nc2nc(-c3ccccc3)c(-c3ccccc3)o2)c1, which Potency is on record?
Answer: Its Potency is inconclusive: 11.9 µM [inhibitor, partial curve].

Question: Which Potency does the source give for O=C1CCC(=O)N1c1ccc(CSc2nc3ccccc3[nH]2)cc1 here?
Answer: Its Potency is inconclusive: 26.7 µM [inhibitor, partial curve].

Question: How did the Potency turn out when COc1cccc(C(=O)C(C#N)=C(SC)SC)c1 was run?
Answer: Its Potency is active: 15 µM.

Question: For CC(C)CC(N)c1csc(NC(=O)Nc2ccccc2Cc2ccccc2)n1 (stereo unspecified), which max response, negative = inhibition is on record?
Answer: The max response, negative = inhibition was inactive: -2.34%.

Question: For CCOc1cc(C(=O)NCC(=O)N2CCC3(CC2)NCCc2[nH]cnc23)cc(OCC)c1OCC, which Potency is on record?
Answer: Its Potency is inconclusive: 18.9 µM [inhibitor, partial curve].

Question: O=c1[nH]n(-c2ccccn2)c(=O)c2ccccc12 was tested. Which Potency did it give?
Answer: Its Potency is active: 29.9 µM.

Question: O=C(CSc1nnnn1Cc1ccccc1)Nc1ccccc1 was tested. Which max response, negative = inhibition did it give?
Answer: Its max response, negative = inhibition is inactive: 3.26%.

Question: For S=c1[nH]nc([C@@H]2C[C@H]2c2ccccc2)n1-c1ccccc1Cl, which max response, negative = inhibition is on record?
Answer: Its max response, negative = inhibition is inactive: 0.0294%.

Question: Cc1ccccc1Nc1cc(C(=O)NCC2CCCO2)c2ccccc2n1 (stereo unspecified) was tested. Which Potency did it give?
Answer: The Potency was active: 10.6 µM.

Question: Which Potency does the source give for CC(C)(C)c1ccc(-c2nc3[nH]c(=O)cc(NC(=O)c4ccco4)n3n2)cc1 here?
Answer: The Potency was active: 23.8 µM.

Question: How did the Potency turn out when O=C(Oc1ccc(N(Cc2cccs2)C2=NS(=O)(=O)c3ccccc32)cc1)c1ccccc1Cl was run?
Answer: Its Potency is active: 2.67 µM.

Question: With COc1ccc(S(=O)(=O)Cc2ccc(C(=O)NC(C)C)o2)cc1 as the compound, how does the Potency read?
Answer: The Potency was active: 21.2 µM.

Question: With CSc1ccc(/C=N/n2c(Cc3ccc(Br)cc3)n[nH]c2=S)cc1 as the compound, how does the max response, negative = inhibition read?
Answer: The max response, negative = inhibition was inconclusive: -35% [inhibitor].

Question: For CCN(CC)C(=O)c1ncn2c1c(=O)[nH]c1ccccc12, which max response, negative = inhibition is on record?
Answer: Its max response, negative = inhibition is inactive: -0.988%.

Question: For CCCOc1ccc(S(=O)(=O)N2CCOCC2)cc1[N+](=O)[O-], which max response, negative = inhibition is on record?
Answer: Its max response, negative = inhibition is inactive: 0%.

Question: Cc1ccc2c(CC(=O)O)coc2c1C was tested. Which Potency did it give?
Answer: Its Potency is inconclusive: 23.8 µM [inhibitor, single point].

Question: Cc1noc(NS(=O)(=O)c2ccc(NC(=O)CSc3nc4c(cc3C#N)CCC4)cc2)c1C was tested. Which Potency did it give?
Answer: Its Potency is inconclusive: 21.2 µM [inhibitor, partial curve].

Question: How did the Potency turn out when Cc1ccc(-c2csc(N3CCN(c4cc5c(cc4Cl)nc(-c4ccncc4)n5CCN4CCCCC4)CC3)n2)cc1 was run?
Answer: Its Potency is inconclusive: 67 µM [inhibitor, partial curve].

Question: For COc1ccc(CN(C)CC(=O)Nc2ccc(N3CCOCC3)cc2)cc1OC, which max response, negative = inhibition is on record?
Answer: The max response, negative = inhibition was inactive: 3.41%.

Question: For CCOc1ccc2[nH]c(C(=O)N/N=C/c3ccc(OC)cc3)cc2c1, which Potency is on record?
Answer: Its Potency is inconclusive: 33.6 µM [inhibitor, single point].

Question: How did the Potency turn out when Cc1ccccc1SCC(=O)Nc1ccc(N2CCOCC2)cc1 was run?
Answer: Its Potency is active: 18.9 µM.

Question: Which max response, negative = inhibition does the source give for O=C(NCCN1CCN(c2cccc(Cl)c2)CC1)c1cccn2c(=O)c3ccccc3nc12 here?
Answer: Its max response, negative = inhibition is inconclusive: -11.1% [inhibitor].

Question: With CC(Sc1ccc2c(c1)OCCO2)C(=O)Nc1ccc(N2CCOCC2)cc1 (stereo unspecified) as the compound, how does the Potency read?
Answer: The Potency was inconclusive: 15 µM [inhibitor, partial curve].

Question: COc1cc(C(=O)NC(=S)Nc2ccccc2N2CCCC2)cc(OC)c1OC was tested. Which Potency did it give?
Answer: The Potency was inconclusive: 29.9 µM [inhibitor, partial curve].

Question: Nc1ccc(N(CCO)CCO)cc1 was tested. Which Potency did it give?
Answer: Its Potency is inconclusive: 37.7 µM [inhibitor, single point].

Question: Cc1ccc(C(=O)N/N=C/c2cccc(OC(=O)/C=C/c3ccco3)c2)cn1 was tested. Which Potency did it give?
Answer: The Potency was active: 26.7 µM.

Question: How did the max response, negative = inhibition turn out when COc1ccc(NC(=O)C2Cc3c(-c4ccc5c(c4)OCO5)ccnc3O2)cn1 (stereo unspecified) was run?
Answer: Its max response, negative = inhibition is inactive: -5.75%.

Question: How did the Potency turn out when COc1cc(/C=N/Nc2ccc(Cl)c(C(=O)O)c2)ccc1OC(=O)c1cccs1 was run?
Answer: The Potency was inconclusive: 29.9 µM [inhibitor, partial curve].

Question: With CCOC(=O)C(=O)N(C)c1c(CC)nc2c(OCc3cc(Cl)cc(Cl)c3)cccn12 as the compound, how does the max response, negative = inhibition read?
Answer: The max response, negative = inhibition was inactive: -13.1%.

Question: How did the max response, negative = inhibition turn out when COc1cccc(C(=O)COc2cccc(NC(=O)c3cccc([N+](=O)[O-])c3)c2)c1 was run?
Answer: The max response, negative = inhibition was inactive: 0.283%.

Question: CCn1cc(C(=O)N2CCN(Cc3ccc4c(c3)OCO4)CC2)c2cc(OC)c(OC)cc2c1=O was tested. Which Potency did it give?
Answer: Its Potency is inconclusive: 16.8 µM [inhibitor, partial curve].

Question: C/C(N)=C(/C#N)C(=O)COC(=O)CC12CC3CC(CC(C3)C1)C2 was tested. Which Potency did it give?
Answer: Its Potency is inconclusive: 21.2 µM [inhibitor, partial curve].

Question: With CC1=CCC[C@@H]2[C@@](C)(CC/C(C)=C/C(=O)O)[C@H](C)CC[C@@]12C as the compound, how does the Potency read?
Answer: Its Potency is inconclusive: 13.4 µM [inhibitor, single point].

Question: With CC(C)NC(=O)C(=O)NNC(=O)CCc1ccccc1 as the compound, how does the max response, negative = inhibition read?
Answer: Its max response, negative = inhibition is inactive: -2.05%.

Question: How did the Potency turn out when Cc1ccc(-c2n[nH]c(=S)n2/N=C/c2ccncc2)cc1 was run?
Answer: The Potency was inconclusive: 23.8 µM [inhibitor, single point].

Question: For C=C(C)C(=O)Nc1ccc(OC(F)(F)C(F)F)c(NC(=O)C(=C)C)c1, which Potency is on record?
Answer: The Potency was inconclusive: 21.2 µM [inhibitor, single point].

Question: COc1ccc(S(=O)(=O)NCC2CCCN(Cc3cn(C)nc3C)C2)cc1 (stereo unspecified) was tested. Which Potency did it give?
Answer: The Potency was inconclusive: 26.7 µM [inhibitor, single point].
